In PubChem BioAssay AID2417 (National Center for Advancing Translational Sciences (NCATS), 2010):
Hit rate of the full screen: of about 140,000 compounds, about 4,300 (3.1%) were called active. Inconclusive means that the source gave no clear call. Such entries were picked first, then a sample of the others.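 Rule for the calls: active = readout at or below -70, meaning at least 70% loss of cells showing the perinucleolar compartment, a nuclear body marking cancer cells; inconclusive = readout between -30 and a set limit; inactive = the rest.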

Assay: High Content Assay for Compounds that inhibit the Assembly of the Perinucleolar Compartment;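 note: plate controls were DMSO wells for no effect and camptothecin positive control wells for full effect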
Conditions: PC3M PTB-GFP, PNC prevalence imaging, 16 h; at 10 µM; hits give low values
Method in brief: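 Read-out is percentage of cells bearing a perinucleolar compartment, from automated 20x imaging of fixed, Hoechst-stained PC3M PTB-GFP cells. Cells were seeded 4 h, then exposed 16 h to compound (23 nl of library stock) in duplicate plates.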

Row | Compound | activity change (PNC), negative = inhibition
1 | Cn1ccnc1SCC(=O)Nc1cc(C(F)(F)F)ccc1N1CCOCC1 | inactive: -2.62%
2 | O=[N+]([O-])c1ccc(/C=N\N2CCN(c3ccc(Cl)cc3)CC2)cc1 | inconclusive: -32.3%
3 | O=Cc1cnc(N2CCOCC2)nc1 | inactive: 32.5%
4 | CCS(=O)(=O)NCC(c1ccco1)N1CCN(c2ccccc2F)CC1 (stereo not given) | inconclusive: -49.7%
5 | CCOc1cc(C2C(C(=O)N3CCCCC3)=C(C)NC3=C2C(=O)CC(C)(C)C3)ccc1O (stereo not given) | inconclusive: -30.7%
6 | CCOC(=O)N1CCN(c2cc(=O)n(-c3ccc(OCC)cc3)c(=O)[nH]2)CC1 | inconclusive: -36.4%
7 | CNC(=O)c1ccc(Oc2ccc(C(=O)NC)cc2)cc1 | inactive: -1.61%
8 | C1=C(CCNc2ncnc3nc[nH]c23)CCCC1 | inconclusive: -33.7%
9 | Cc1occc(=O)c1O | inactive: -13.3%
10 | CC(C)C(=O)Nc1ccc(NC(=O)c2ccccc2Cl)nc1 | inconclusive: -50%
11 | Cc1cc(C(=O)Nn2c(C3CCCCC3)nc3ccccc3c2=O)ccc1[N+](=O)[O-] | inactive: 4.48%
12 | O=C(NC1CCCCCC1)c1c(F)c(F)c(F)c(F)c1F | inconclusive: -54.9%
13 | FC(F)(F)c1nc2nncn2c2c1CCCCC2 | inconclusive: -37.1%
14 | CSc1nc(Sc2ccccc2Cl)c2ccccc2n1 | inconclusive: -50%
15 | Cc1csc(Sc2ccc([N+](=O)[O-])cc2C(=O)OCC(=O)NC2CCCC(C)C2C)n1 (stereo not given) | inconclusive: -47.2%
16 | COc1cccc(NS(=O)(=O)c2ccc3c(c2)CCCN3C(C)=O)c1 | inactive: 26.1%
17 | COc1cc2c(cc1OC)CN(c1nc(CN3CCCCC3)nc3sc4c(c13)CCCC4)CC2 | inconclusive: -65.8%
18 | CCOc1cc(N2CCOCC2)c(OCC)cc1NC(=O)CC12CC3CC(CC(C3)C1)C2 | inconclusive: -57%
19 | CN(CC(=O)NCc1ccco1)S(=O)(=O)c1ccc2c(c1)n(C)c(=O)c(=O)n2C | inconclusive: -40.6%
20 | CC(C)C(NC(=O)c1ccco1)C(=O)NCC(c1ccco1)N1CCCCC1 (stereo not given) | inconclusive: -46.5%
21 | Cc1ccc(N2CC(C(=O)NC3CCSC3=O)CC2=O)cc1 (stereo not given) | inconclusive: -43%
22 | Cc1cc(C(C)(C)C)oc1C(=O)N(CC(=O)NC1CCCC1)Cc1ccc(Cl)cc1 | inconclusive: -38.7%
23 | CCC12CN3CC(CC)(CN(C1)C3c1c(O)ccc3ccccc13)C2=O (stereo not given) | inconclusive: -70.3%

Row | Compound | activity change (PNC), negative = inhibition
24 | O=C(CN1C(=O)/C(=C\c2ccc(F)cc2)Oc2ccccc21)N1CCN(c2ccccn2)CC1 | inconclusive: -30.8%
25 | Cc1cc(F)ccc1NCc1ccncc1 | inconclusive: -79.4%
26 | O=C(OCc1nc2scc(-c3ccccc3)c2c(=O)[nH]1)c1cccc([N+](=O)[O-])c1 | inconclusive: -48.6%
27 | Cc1oc(C)c2c(=O)ccc3c(c12)OC(N)=C(C#N)C3c1ccccc1Cl (stereo not given) | inactive: -21.8%
28 | CCOC(=O)NC(NS(=O)(=O)c1ccccc1)(C(=O)OCC)C(F)(F)F (stereo not given) | inconclusive: -45.2%
29 | COc1ccc(Br)cc1CNC(=O)C1CCCN(c2nc3ccccc3o2)C1 (stereo not given) | inconclusive: -59.3%
30 | CCC(C)(c1ccc(C(=O)OC)s1)c1ccc(C(=O)OC)s1 | inconclusive: -59.4%
31 | COc1cccc(/C=N/NC(=O)C(=O)N2CCCC2)c1O | inactive: -15.9%
32 | CCC(C)NC(=O)c1ccccc1C(=O)NC(C)CC (stereo not given) | inconclusive: -74.3%
33 | CCCCN=CC1=C(O)C(C(=O)OC)C(C)(C)CC1=O (stereo not given) | active: -85.7%
34 | C=CCOC(=O)COc1ccc2c(C)c(CC)c(=O)oc2c1 | inconclusive: -72.5%
35 | Cc1nn(Cc2ccc(Cl)c(Cl)c2)c(C)c1NC(=O)c1cc(C2CC2)on1 | inconclusive: -50.7%
36 | CCN(CC)CCCNC(=O)c1cc(Sc2nnc(C)s2)nc2ccccc12 | inconclusive: -75.4%
37 | C(=N\n1cnnc1)/C1CCCCC1 | inconclusive: -44%
38 | O=C(Cc1ccc(S(=O)(=O)N2CCCCC2)s1)Nc1ccc(F)c(F)c1 | active: -86.3%
39 | CC1=C(C(=O)OC2CCCCC2)C(c2ccc(C)o2)C2=C(CC(C)(C)CC2=O)N1 (stereo not given) | inconclusive: -33.1%
40 | Cc1ccc(Cn2ccc(NC(=O)c3cc(-c4ccc5c(c4)OCO5)on3)n2)cc1 | inactive: -3.41%
41 | O=C(Cn1cc2c(n1)CCCC2)NCCc1ccccc1 | inconclusive: -52.4%
42 | Nc1ncnc2c1C1(CCCCC1)Cc1ccccc1-2 | inactive: -5.04%
43 | CCOCCn1c(C(C)O)nc2ccccc21 (stereo not given) | inconclusive: -79.8%
44 | O=C(C1CCCN(S(=O)(=O)c2cccc3cccnc23)C1)N1CCN(c2ccc(F)cc2)CC1 (stereo not given) | active: -81.3%
45 | CC(Sc1nc(N2CCCCC2)c2c(c1C#N)CCCC2)C(=O)O (stereo not given) | active: -117%

By substructure: the entries above containing a cyano group
Row | Compound | activity change (PNC), negative = inhibition
27 | Cc1oc(C)c2c(=O)ccc3c(c12)OC(N)=C(C#N)C3c1ccccc1Cl (stereo not given) | inactive: -21.8%
45 | CC(Sc1nc(N2CCCCC2)c2c(c1C#N)CCCC2)C(=O)O (stereo not given) | active: -117%
